Patent US20170051040A1
No constants are given. Whether binding was seen depends on the method and setting. Some results given as binding are weak or reduced against the parent protein; the word gives no strength.

The chains behind the UniProt entries cited, without tags or fusion partners. Residues count along the entry.
UniProt P41597: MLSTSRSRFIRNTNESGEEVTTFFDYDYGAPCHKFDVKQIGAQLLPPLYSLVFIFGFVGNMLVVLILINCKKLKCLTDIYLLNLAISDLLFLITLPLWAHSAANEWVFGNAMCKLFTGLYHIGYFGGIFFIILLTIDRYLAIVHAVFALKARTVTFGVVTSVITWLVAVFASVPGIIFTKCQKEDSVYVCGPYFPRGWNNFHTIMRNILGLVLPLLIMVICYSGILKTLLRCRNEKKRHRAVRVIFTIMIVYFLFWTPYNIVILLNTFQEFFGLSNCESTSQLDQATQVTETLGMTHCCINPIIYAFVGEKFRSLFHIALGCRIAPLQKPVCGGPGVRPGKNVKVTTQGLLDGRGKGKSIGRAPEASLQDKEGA
UniProt P13500, residues 24-99: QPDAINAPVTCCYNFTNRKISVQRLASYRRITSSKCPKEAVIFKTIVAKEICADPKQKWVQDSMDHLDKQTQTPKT

Assays:
[1] = biological target: CC chemokine receptor 2 (CCR2) stably expressed on HEK293 cells (human) (UniProt P41597); experiment: flow cytometry on HEK-CCR2 cells; displaced by unlabelled CCL2, not by ECL1 (C) inverso
[2] = biological target: CC chemokine receptor 2 (CCR2) stably expressed on HEK293 cells (human) (UniProt P41597); experiment: competition binding on HEK-CCR2 cells; tracers [125I]-CCL2 (gamma counting) and CCL2-Alexa 647 (flow cytometry)
[3] = biological target: CC chemokine receptor 2 (CCR2) stably expressed on HEK293 cells (human) (UniProt P41597); experiment: competition binding on HEK-CCR2 cells, flow cytometry; competitor of the tracer CCL2-Alexa-647

Row | binding [1] | binding [2] | binding [3] | Substance
1 | binds | – | – | CCL2-Alexa 647 (from UniProt P13500 24-99) (ligand)
2 | – | binds | binds | recombinant human CCL2 (from UniProt P13500 24-99) (ligand)
